Results published in article PMC6494814, “Kremen1-induced cell death is regulated by homo- and heterodimerization” (Cell Death Discovery, 2019).

Target: T1, Kremen1 (Krm1), full length, Flag-tagged or HA-tagged (UniProt Q99N43)
T1 sequence: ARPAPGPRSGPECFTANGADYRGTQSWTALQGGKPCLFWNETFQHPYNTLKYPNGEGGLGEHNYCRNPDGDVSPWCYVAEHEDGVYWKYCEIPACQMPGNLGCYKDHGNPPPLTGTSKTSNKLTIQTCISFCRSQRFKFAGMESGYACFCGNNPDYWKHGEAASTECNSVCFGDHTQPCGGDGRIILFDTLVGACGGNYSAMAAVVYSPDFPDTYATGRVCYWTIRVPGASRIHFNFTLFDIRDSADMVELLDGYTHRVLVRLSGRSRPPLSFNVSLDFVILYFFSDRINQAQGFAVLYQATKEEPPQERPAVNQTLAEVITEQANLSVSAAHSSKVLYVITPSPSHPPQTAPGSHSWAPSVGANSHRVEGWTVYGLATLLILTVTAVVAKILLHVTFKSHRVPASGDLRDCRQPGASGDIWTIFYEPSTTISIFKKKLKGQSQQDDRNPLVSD
Experiment: co-IP; HEK293T cells co-transfected, lysed after 24 h in 25 mM Tris pH7.4, 150 mM NaCl, 5 mM EDTA, 1% Triton-X100, 10% Glycerol; anti-Flag immunoprecipitation (Dynabeads proteinG), anti-HA western blot

Substance | binding
HA-Krm2ΔICD, Krm2 lacking the intracellular domain (domain or fragment) | binds
HA-Krm1ΔICD, Krm1 lacking the intracellular domain (domain or fragment) | binds

These are yes or no findings as the source states them, for the method shown. In cells and extracts the contact can be indirect. Binding calls can cover weak binding; strength is not graded here. Sequences can lack the tags named with a protein.
